The experiment addresses β-catenin (human (endogenous in Caco2)) (UniProt P35222). As to the kind of experiment: co-IP; Caco2 cell lysates precleared with protein A/G beads, incubated with β-catenin antibody at 4 °C overnight, protein A/G beads 1 h, immunoblot; cells untreated, treated with 10 μM 5-HT for 24 h, or pretreated with 20 μM SB269970 (HTR7 antagonist) for 2 h and then 5-HT.

The chains behind the UniProt entries cited, without tags or fusion partners.
UniProt P35222: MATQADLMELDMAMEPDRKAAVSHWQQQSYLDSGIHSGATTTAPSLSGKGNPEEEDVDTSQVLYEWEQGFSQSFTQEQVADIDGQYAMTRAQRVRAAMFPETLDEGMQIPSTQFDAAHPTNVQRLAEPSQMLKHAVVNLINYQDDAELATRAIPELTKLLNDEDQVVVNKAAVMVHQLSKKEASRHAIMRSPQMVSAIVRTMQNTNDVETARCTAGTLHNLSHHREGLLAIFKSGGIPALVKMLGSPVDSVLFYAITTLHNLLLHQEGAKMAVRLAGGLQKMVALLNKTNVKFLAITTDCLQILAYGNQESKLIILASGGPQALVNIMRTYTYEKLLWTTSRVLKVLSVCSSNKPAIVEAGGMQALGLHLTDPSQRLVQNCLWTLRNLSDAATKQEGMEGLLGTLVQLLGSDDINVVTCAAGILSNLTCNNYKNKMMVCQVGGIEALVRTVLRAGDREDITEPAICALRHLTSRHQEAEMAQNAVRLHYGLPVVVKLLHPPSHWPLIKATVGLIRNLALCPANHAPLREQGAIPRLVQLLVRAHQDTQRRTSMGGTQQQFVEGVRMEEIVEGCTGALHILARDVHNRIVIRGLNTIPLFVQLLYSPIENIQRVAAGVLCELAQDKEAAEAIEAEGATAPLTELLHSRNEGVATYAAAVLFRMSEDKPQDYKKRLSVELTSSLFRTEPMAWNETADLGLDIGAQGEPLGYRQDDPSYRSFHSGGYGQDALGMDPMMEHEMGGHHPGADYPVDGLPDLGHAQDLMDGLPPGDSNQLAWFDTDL
UniProt O15169: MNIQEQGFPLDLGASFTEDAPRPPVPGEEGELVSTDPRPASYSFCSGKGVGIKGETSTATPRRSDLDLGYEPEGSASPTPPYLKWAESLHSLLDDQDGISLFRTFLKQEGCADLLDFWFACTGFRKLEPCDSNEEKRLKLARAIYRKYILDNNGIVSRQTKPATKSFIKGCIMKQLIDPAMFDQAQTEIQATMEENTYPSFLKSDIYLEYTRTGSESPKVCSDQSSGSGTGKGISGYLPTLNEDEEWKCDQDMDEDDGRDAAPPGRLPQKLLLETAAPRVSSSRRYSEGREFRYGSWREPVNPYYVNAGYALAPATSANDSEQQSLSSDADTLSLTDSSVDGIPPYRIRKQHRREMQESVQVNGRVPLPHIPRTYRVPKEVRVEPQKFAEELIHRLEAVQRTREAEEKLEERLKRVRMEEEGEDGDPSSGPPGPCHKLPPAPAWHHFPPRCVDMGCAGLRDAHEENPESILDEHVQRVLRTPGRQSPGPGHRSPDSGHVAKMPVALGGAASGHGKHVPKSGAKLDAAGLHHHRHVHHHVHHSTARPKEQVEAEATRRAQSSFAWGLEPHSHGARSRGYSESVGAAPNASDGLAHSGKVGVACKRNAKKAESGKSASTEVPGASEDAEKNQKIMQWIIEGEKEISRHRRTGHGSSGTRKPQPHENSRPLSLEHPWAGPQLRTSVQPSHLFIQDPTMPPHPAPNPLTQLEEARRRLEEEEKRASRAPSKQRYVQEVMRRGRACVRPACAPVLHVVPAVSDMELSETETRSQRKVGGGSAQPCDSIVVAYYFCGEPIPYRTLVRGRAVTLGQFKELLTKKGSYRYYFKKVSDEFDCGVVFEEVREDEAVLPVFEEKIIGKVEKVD

These are yes or no findings as the source states them, for the method shown. In cells and extracts the contact can be indirect. Some binding calls cover weakened binding; strength is not graded here.

Here are results for one substance from paper PMC12071331.

Axin1 (from UniProt O15169 1-862): the binding result was “binds”.
